# Experimental data: patent publication US20150265614A1, “ORAL PREPARATION AND METHOD FOR PRODUCING THE SAME” (CHUNG-ANG UNIVERSITY INDUSTRY-ACADEMY COOPERATION FOUNDATION, priority 2012, published 2015)
# At least one structure is not confirmed: it was looked up by name or label, or the drawing left a doubt.
# Assays:
# [1] = release characteristics of tadalafil in distilled water (HPLC); assay type: physicochemical; settings: 100 ml distilled water, 36° C. to 38° C., 100 rpm, at 12 hours, HPLC 260 nm
# [2] = electron / optical microscope observation of crystal size of the active ingredient; assay type: physicochemical; settings: electron microscope (Examples), optical microscope (Comparative Examples)
smiles,measurement,setting,value
"CN1CC(=O)N2[C@H](c3ccc4c(c3)OCO4)c3[nH]c4ccccc4c3C[C@@H]2C1=O [Comparative Example 1, tadalafil]",tadalafil released,[1],about 55%
same,size of tadalafil crystal particulates / crystals,[2],several hundred μm
